Source: publication PMC4075472

How the values were obtained:
[1] = target: T1, CASK-β, full-length wild type, tagged with a C-terminal YFP (Drosophila) (UniProt Q24210); assay: affinity purification with mass spectrometry; as a1, but CASK-YFP expressed with C164-GAL4 (a subset of adult neurons)
T1 sequence: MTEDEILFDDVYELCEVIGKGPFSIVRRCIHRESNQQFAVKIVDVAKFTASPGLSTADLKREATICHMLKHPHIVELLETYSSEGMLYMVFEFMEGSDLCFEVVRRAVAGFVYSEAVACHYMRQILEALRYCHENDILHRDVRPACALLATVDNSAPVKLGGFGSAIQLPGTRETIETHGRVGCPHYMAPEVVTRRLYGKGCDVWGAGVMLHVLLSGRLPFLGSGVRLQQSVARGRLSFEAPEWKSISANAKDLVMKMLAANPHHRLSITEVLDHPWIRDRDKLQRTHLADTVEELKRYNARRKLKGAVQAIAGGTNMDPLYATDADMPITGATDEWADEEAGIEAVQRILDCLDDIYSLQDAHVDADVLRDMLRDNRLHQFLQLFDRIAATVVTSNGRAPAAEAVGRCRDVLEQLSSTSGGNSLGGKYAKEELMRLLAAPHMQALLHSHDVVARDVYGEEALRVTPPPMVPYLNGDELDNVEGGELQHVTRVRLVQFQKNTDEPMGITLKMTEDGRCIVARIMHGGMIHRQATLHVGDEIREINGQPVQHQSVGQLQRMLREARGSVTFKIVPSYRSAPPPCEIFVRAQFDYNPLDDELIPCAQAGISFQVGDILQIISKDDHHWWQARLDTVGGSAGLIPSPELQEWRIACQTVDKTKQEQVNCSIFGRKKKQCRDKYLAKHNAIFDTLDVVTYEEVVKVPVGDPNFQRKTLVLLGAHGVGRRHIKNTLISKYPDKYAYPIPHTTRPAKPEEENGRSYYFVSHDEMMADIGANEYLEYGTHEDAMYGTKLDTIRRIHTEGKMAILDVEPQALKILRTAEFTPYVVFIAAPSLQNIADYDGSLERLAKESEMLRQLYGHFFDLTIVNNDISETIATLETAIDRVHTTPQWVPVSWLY

[2] = target: T1, CASK-β, full-length wild type, tagged with a C-terminal YFP (Drosophila); assay: affinity purification with mass spectrometry; as a1, but CASK-YFP (full length, ΔL27 or ΔCaMK) expressed with TH-GAL4 (dopaminergic neurons); decreased: peptide ratio mutant/full length <= 0.5
[3] = target: T1, CASK-β, full-length wild type, tagged with a C-terminal YFP (Drosophila); assay: affinity purification with mass spectrometry; CASK-YFP expressed with C155-GAL4 (all neurons) on a CASK-β null background; about 100 adult heads, solubilised with deoxycholic acid and Triton X-100, GFP-TRAP beads overnight at 4°C, washed in 20 mM Tris pH 7.2, 100 mM NaCl, 1% deoxycholic acid, 1% Triton X-100; SDS-PAGE, LC-MS/MS; hits: >4 unique peptides and at least 4-fold over the control GFP precipitation
[4] = target: T1, CASK-β, full-length wild type, tagged with a C-terminal YFP (Drosophila); assay: affinity purification with mass spectrometry; CASK-YFP precipitated with GFP-TRAP beads from adult head lysate as in a1; the GAL4 driver of this hit is not told

B1: CHP (protein, UniProt P12024 30-1315)
chain: SMFDREMEETHYPPCTYNVMCTCSKSSTDLGIVHCKNVPFPALPRMVNQSKVFMLHMENTGLREIEPYFLQSTGMYRLKISGNHLTEIPDDAFTGLERSLWELILPQNDLVEIPSKSLRHLQKLRHLDLGYNHITHIQHDSFRGLEDSLQTLILRENCISQLMSHSFSGLLILETLDLSGNNLFEIDPNVFVDGMPRLTRLLLTDNILSEIPYDALGPLKSLRTLDISHNVIWSLSGNETYEIKASTKLNLDNLHLEYNHIEVLPPNSFKYFDTVNRTFFDGNPIHTLREDAFKPARIREIYMRYCGLTNISPVAFDSLVNSLQILDLSGNNLTKLHHKLFNNFDVLRVISMRDNKIKIQKPTETFNAVHYTLLKLDLSGDRNDPTNLQTLRNMTRMRNMRSLSISRLGSSSVGPEDFKDFGVELEDLQITRASLSGIQSHAFKHVRGLKRLDFSENGISSIENDAFHEIGHSLISLKMSHGYSGSALPAEPLRHLTSLQELDFSNNHISSMSDTSFHFLKNLRLLELHDNRIEQVLKGTFQGDIHSKLEEISLRFNHLTSISQHTFFDLEALRKLHLDDNKIDKIERRAFMNLDELEYLSLRGNKINNLADESFQNLPKLEILDMAFNQLPNFNFDYFDQVGTLSNLNVNVSHNQIRQLMYNSSWSGRNEHGGMYHSNIKILDLSHNNISIIHPGYFRPAEISLTHLHLGYNSLMNTTRDVFGNMPHLQWLDLSYNWIHELDFDAFKNTKQLQLVFFGHNYLSDIPQDIFKPVQGLRIVDFSHNHLRGLPDNLFYNGGMEKLDVSHNMMLKIPSSSLSSLAALTLCELHLSNNFISTIHSMDLSNKFRSLRYLDISYNYLLRIDDAVFATMPKLAVLDLSHNRDLKVMDKSFMGLENSLIKLGLENISLSTVPEIRLKYLREFRLGYNELPSIPQELAHNMSNLRMLDLSNNDLTNVPLMTQALPHLRRLMLSGNPITSLNNNSFDGVNEDLEMLDISNFRLHYFEYGCLDSLPHLRSLKLTAYSHLEHFNIPHLLRHHYNIRQLWIEAPQPFTRIVKKGSGPTQEMQTLQLGNPTDLQREMEGHLPSKLTNITFSGPQFTNLNERILRGMRSPYLYMQLFNTSLQALPPNFFKYMGRVRNISLDIRYHNRNLKKIPNPNTGAVPYLPNSVFLTDLKMSHTDLNCDCDLGWVEFWQRKRRQYICSSQTWTDTVFRTFMNSPCQVYGRHNCDEHDDDLRETRCENKGGQQLMEALKFDLECGWDNANCREAAFVVVMVCVAMVFWM
With B1 the binding [1] was “binds”.

B2: PRM (protein, UniProt P35415 1-879)
chain: MSSSQAVRSSKYSYRATSTGPGTADVNIEYIQDLSSLSRLEDKIRLLQDDLEVERELRQRIEREKADLSVQVIQMSERLEEAEGGAEHQFEANRKRDAELLKLRKLLEDVHLESEETTLLLKKKHNEIITDFQEQVEILTKNKARAEKDKAKFQTEVYELLSQIESYNKEKIVSEKHISKLEVSISELNVKIEELNRTVIDISSHRSRLSQENIELTKDVQDLKVQLDTVSFSKSQVISQLEDARRRLEDEDRRRSLLESSLHQVEIELDSVRNQLEEESEARIDLERQLVKANADATSWQNKWNSEVAARAEEVEEIRRKYQVRITELEEHIESLIVKVNNLEKMKTRLASEVEVLIIDLEKSNNSCRELTKSVNTLEKHNVELKSRLDETIILYETSQRDLKNKHADLVRTVHELDKVKDNNNQLTRENKKLGDDLHEAKGAINELNRRLHELELELRRLENERDELTAAYKEAEAGRKAEEQRGQRLAADFNQYRHDAERRLAEKDEEIEAIRKQTSIEIEQLNARVIEAETRLKTEVTRIKKKLQIQITELEMSLDVANKTNIDLQKVIKKQSLQLTELQAHYEDVQRQLQATLDQYAVAQRRLAGLNGELEEVRSHLDSANRAKRTVELQYEEAASRINELTTANVSLVSIKSKLEQELSVVASDYEEVSKELRISDERYQKVQVELKHVVEQVHEEQERIVKLETIKKSLEVEVKNLSIRLEEVELNAVAGSKRIISKLEARIRDLELELEEEKRRHAETIKILRKKERTVKEVLVQCEEDQKNLILLQDALDKSTAKINIYRRQLSEQEGVSQQTTTRVRRFQRELEAAEDRADTAESSLNIIRAKHRTFVTTSTVPGSQVYIQETTRTITE
B2 was tested, and the binding [1] was “binds”.

B3: TPI (enzyme, UniProt P29613 1-247)
chain: MSRKFCVGGNWKMNGDQKSIAEIAKTLSSAALDPNTEVVIGCPAIYLMYARNLLPCELGLAGQNAYKVAKGAFTGEISPAMLKDIGADWVILGHSERRAIFGESDALIAEKAEHALAEGLKVIACIGETLEEREAGKTNEVVARQMCAYAQKIKDWKNVVVAYEPVWAIGTGQTATPDQAQEVHAFLRQWLSDNISKEVSASLRIQYGGSVTAANAKELAKKPDIDGFLVGGASLKPEFVDIINARQ
With B3 the binding [2] was “binds” and the binding [3] was “binds”.

B4: DJ-1 (dj-1β) (protein, UniProt Q9VA37 1-187)
chain: MSKSALVILAPGAEEMEFIIAADVLRRAGIKVTVAGLNGGEAVKCSRDVQILPDTSLAQVASDKFDVVVLPGGLGGSNAMGESSLVGDLLRSQESGGGLIAAICAAPTVLAKHGVASGKSLTSYPSMKPQLVNNYSYVDDKTVVKDGNLITSRGPGTAYEFALKIAEELAGKEKVQEVAKGLLVAYN
In the case of B4, the binding [4] is reported as “binds”.

These are yes or no findings as the source states them, for the method shown. Binding seen in cells or lysates may run through a third protein. These calls come from enrichment with a bait or labelling near it, and not all partners need be listed. Where a sequence is shown, tags or fusion partners need not be part of it.
